## Library compounds against nucleic acid targets

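Compounds were printed on reactive glass slides in duplicate spots, a dye-labelled oligonucleotide was laid over them, and the fluorescence left after washing was read. For the PreQ1, TPP and SAM-II riboswitches the laboratory earlier reported (doi:10.1038/s41467-019-09493-3) 1 µM RNA, 2 h, and a rule that included a mean Z-score above 3 (spot signal-to-noise against the whole library), a score well above that on a control array, and duplicate spots agreeing (coefficient of variation under 100). The data file gives only the calls; its cut-offs may differ, and compounds hitting several targets are kept. A missing hit is not proof of no binding, and a hit is not a measured affinity.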 A compound is marked 1 if it was called a hit and 0 if it was screened but was not. This is an unselected part of the compounds tested. A target missing from an entry has no call listed here.

Targets, with sequences 5′ to 3′:
SAM-II: SAM-II riboswitch RNA pseudoknot, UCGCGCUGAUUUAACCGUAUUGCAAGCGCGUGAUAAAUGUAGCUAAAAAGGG. About 21,000 compounds screened, about 200 hits.
TPP: TPP riboswitch RNA three-way junction, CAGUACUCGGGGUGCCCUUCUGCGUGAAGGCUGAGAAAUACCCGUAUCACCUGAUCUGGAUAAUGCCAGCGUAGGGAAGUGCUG. About 24,000 compounds screened, about 160 hits.

Compound: COc1ccc(C(=O)N2CC[C@@H](CNC(=O)N3CCCC3)[C@H](O)C2)o1
SAM-II: 0
TPP: 0

Compound: CCc1ccc(-n2nc(CO)c(C(=O)NC(CC)CO)n2)cc1 (stereo not given)
TPP: 0

Compound: COc1cc(C(C)=O)ccc1OCC(O)CN1CCN(c2cc(Cl)ccc2C)CC1 (stereo not given)
SAM-II: 0
TPP: 0

Compound: N#CC1=C(N)N(c2ccc(C(F)(F)F)cc2)C2=C(C(=O)OC2)C12C(=O)Nc1ccccc12 (stereo not given)
SAM-II: 0
TPP: 0

Compound: NC(=O)C1=C(Nc2ccc(F)c(Cl)c2)c2ccccc2S1(=O)=O
TPP: 0

Compound: Cc1ccc(Nc2ncc3c(n2)CC(c2ccccc2)CC3=O)c(C)c1 (stereo not given)
SAM-II: 0
TPP: 0

Compound: CCCC1=C(C(=O)OCC)C2(C(=O)Nc3ccc(C)cc32)C(C#N)=C(N)O1 (stereo not given)
SAM-II: 0
TPP: 0

Compound: CCN1C(=O)C2(C(C#N)=C(N)Oc3c2c(=O)oc2ccccc32)c2ccccc21 (stereo not given)
SAM-II: 0
TPP: 0

Compound: COc1ccc(F)c(CN2CCCC(O)(CNCc3ccsc3)C2=O)c1 (stereo not given)
SAM-II: 0
TPP: 0

Compound: COCCNc1cc(C(C)C)nc2c(-c3ccccc3)c(C)nn12
TPP: 0

Compound: Cc1cc(C)c2nccc(N3CC[C@@H](N4CCN(C)CC4)[C@H](O)C3)c2c1
SAM-II: 0
TPP: 0

Compound: CCS(=O)(=O)N1CCc2cc(S(=O)(=O)NCCC(C)O)ccc2C1 (stereo not given)
SAM-II: 0
TPP: 0

Compound: COc1ccc2c(Oc3ccc(NC(=O)c4c(C)n(CC(C)(C)O)n(-c5ccccc5)c4=O)cc3F)ccnc2c1
SAM-II: 0
TPP: 0

Compound: Cc1cc(Sc2ccc(N)cc2)n2ncnc2n1
SAM-II: 0
TPP: 0

Compound: CCC[C@H]1CN(c2nc(C)ccc2C(=O)O)C[C@@H]1N
SAM-II: 0
TPP: 0

Compound: CCOC(=O)c1sc2nc(C)nc(Nc3ccc(Cl)cc3)c2c1C
SAM-II: 0
TPP: 0

Compound: COc1ccc(-c2csc(N)n2)cc1Br
SAM-II: 0
TPP: 0

Compound: CC1(C)NC(=O)N(CC(O)CN(c2ccccc2)c2ccccc2)C1=O (stereo not given)
SAM-II: 0
TPP: 0

Compound: CCOc1cc(CNc2ncc(-c3ccc(Br)cc3)n2C)ccc1O
SAM-II: 0
TPP: 0

Compound: C=CCNc1ccccc1C(=O)NCC(c1cccnc1)N1CCCC1 (stereo not given)
SAM-II: 0
TPP: 0

Compound: NC(=O)C1CCN(CCCNC2CC(=O)N(Cc3ccc(N4CCCC4=O)cc3)C2=O)CC1 (stereo not given)
SAM-II: 0
TPP: 0

Compound: Cc1ccc(-c2cc(C(=O)N3CCc4nc(N)sc4C3)[nH]n2)s1
SAM-II: 0
TPP: 0

Compound: CN1CC2(CCNCC2)CC1C(=O)NC1Cc2ccccc2C1 (stereo not given)
SAM-II: 0
TPP: 0

Compound: Cc1cc(C)n(C2CCN(C(=O)CCc3cc4n(n3)CCNC4)C2)n1 (stereo not given)
SAM-II: 0
TPP: 0

Compound: CCOC(=O)c1cnc2ccc(Br)cc2c1NCCN1CCOCC1
SAM-II: 0
TPP: 0

Compound: Cc1oc(N)c(C#N)c1C
TPP: 0

Compound: Cc1ccc(Cl)cc1N1CCN(CC(O)c2ccc3c(c2)CCN3)CC1 (stereo not given)
SAM-II: 0
TPP: 0

Compound: CCCCCCCCCSc1n[nH]c(N)n1
SAM-II: 1
TPP: 0

Compound: CC(=O)c1cccc(Nc2nc(-c3ccncc3)cs2)c1
SAM-II: 0
TPP: 0

Compound: CC(C)c1ccc(CN2CCCC(O)(CNCc3cccnc3O)C2=O)cc1 (stereo not given)
SAM-II: 0
TPP: 0

Compound: Cc1nn(CCO)cc1CN1CCCC(c2ccccc2)(c2ccccc2)C1
SAM-II: 0
TPP: 0

Compound: C=CCC1(Nc2ccccc2)CCCCC1
SAM-II: 0
TPP: 0

Compound: CCCn1nc(C)c(Cn2cc(-c3ccc(CO)o3)nn2)c1C
SAM-II: 0
TPP: 0

Compound: C=CCNc1ccccc1C(=O)NCCC(=O)Nc1ccccc1CC
SAM-II: 0
TPP: 0

Compound: CCn1nc(C(C)C)cc1C(=O)N1CCC(Cn2cc(CO)nn2)CC1
SAM-II: 0
TPP: 0

Compound: CCc1ccc(S(=O)(=O)c2nnn(-c3ccc(C(C)C)cc3)c2N)cc1
SAM-II: 0
TPP: 0

Compound: Oc1ccc2c3c1O[C@H]1c4[nH]c5c(c4C[C@@]4(O)[C@H](C2)N(CC2CC2)CC[C@]314)C[C@@]1(O)[C@H]2Cc3ccc(O)c4c3[C@@]1(CCN2CC1CC1)[C@H]5O4
SAM-II: 0
TPP: 0

Compound: CN(CC1(CO)CC1)C(=O)Nc1ccc(-c2nnc(-c3ccco3)o2)cc1
SAM-II: 0
TPP: 0

Compound: O=C(O)c1ccc(-n2c(C(O)c3ccccc3)n[nH]c2=O)cc1 (stereo not given)
SAM-II: 0
TPP: 0

Compound: NC(=O)C1=C(Nc2ccccc2Cl)c2ccccc2S1(=O)=O
TPP: 0

Compound: CCOC(=O)CSc1nc(N)cc(O)n1
SAM-II: 0
TPP: 0

Compound: Nc1nc(N2CCc3[nH]c4ccc(Cl)cc4c3C2)c2nc[nH]c2n1
SAM-II: 0
TPP: 0

Compound: CCc1ccc(CCOc2ccc(CC3SC(=O)NC3=O)cc2)nc1 (stereo not given)
SAM-II: 0
TPP: 0

Compound: O=S1(=O)C[C@H](NCc2ccc(Cl)cc2)[C@@H](S(=O)(=O)c2ccc(F)cc2)C1
TPP: 0

Compound: CC1(C)CC(NC(=O)N2c3ccccc3Sc3ccccc32)CC(C)(C)N1.Cl
SAM-II: 0
TPP: 0

Compound: CCC(C)NS(=O)(=O)c1ccc(N)cc1 (stereo not given)
SAM-II: 0
TPP: 0

Compound: Cc1nccn1CCCn1nc(C2CCCNC2)n(-c2ccccc2)c1=O (stereo not given)
SAM-II: 0
TPP: 0

Compound: CCOC(=O)c1c(NC2=CC(=O)CC(c3ccccc3)C2)sc2c1CCCC2 (stereo not given)
SAM-II: 0
TPP: 0

Source: the ROBIN nucleic acid binder screens (doi:10.1002/anie.202211358).